Paper PMC12431657, “Discovery and mechanistic insights of dibenzoylmethane as a broad spectrum inhibitor of coronavirus” (PLOS Pathogens, 2025)
Like-named read-outs stand apart in the source and are kept apart here. About 60 (2%) of roughly 3,300 compounds showed an effect of 50% or more. This is one part of the list.

System: HCoV-OC43
Design: species or system RD; HTS, protection from HCoV-OC43 induced cell death, luminescent cell viability (CellCounting-Lite 2.0), inhibition rate
Conditions: 24 h post infection, 1 h compound pre-incubation, 10 µM, inhibitor

Row | Compound | OC43 Inhibition rate | OC43 Inhibition rate (OC43 Inhibition rate, 24 h)
1 | COc1cc([C@H]2OC[C@H]3[C@@H]2CO[C@@H]3c2ccc(O[C@@H]3O[C@H](CO)[C@@H](O)[C@H](O)[C@H]3O)c(OC)c2)ccc1O[C@@H]1O[C@H](CO)[C@@H](O)[C@H](O)[C@H]1O [Pinoresinol Diglucoside] | -0.6% | –
2 | CC(C)(COP(=O)(O)OP(=O)(O)OC[C@H]1O[C@@H](n2cnc3c(N)ncnc32)[C@H](O)[C@@H]1OP(=O)(O)O)[C@@H](O)C(=O)NCCC(=O)NCCS [Coenzyme A] | 0% | –
3 | COc1c2c(cc3c1-c1c(cc4c(c1OC)OCO4)C[C@H](C)[C@H](C)C3)OCO2 [Schisandrin C] | 4.9% | –
4 | O=C(O)/C=C/c1ccc(O)c(O)c1 [Caffeic acid] | 1.3% | –
5 | CC(C)CC(=O)NCC(=O)O [N-Isovaleroylglycine] | -0.4% | –
6 | C=C1C[C@@]2(O)O[C@@]3(C[C@H]2C(C)C)[C@@H](C)CC[C@@H]13 [Curcumol] | -0.3% | –
7 | N[C@@H]1CONC1=O [D-Cycloserine] | -1.2% | –
8 | CCCOC(=O)c1cc(O)c(O)c(O)c1 [Propyl gallate] | -0.1% | –
9 | COc1c(/C=C/C(=O)c2ccc(O)c(O)c2)ccc(O)c1O [Tetrahydroxymethoxychalcone] | 1.6% | –
10 | COc1cc(-c2oc3cc(O)cc(O)c3c(=O)c2O[C@@H]2O[C@H](CO[C@@H]3O[C@@H](C)[C@H](O)[C@@H](O)[C@H]3O)[C@@H](O)[C@H](O)[C@H]2O)ccc1O [Narcissin] | -1% | –
11 | CCCCCCCCCCCCCCCC(=O)NCc1ccccc1 [N-Benzylpalmitamide] | -0.2% | –
12 | C[C@@H]1O[C@@H](Oc2cc(O)c3c(c2)O[C@H](c2ccc(O)c(O)c2)[C@@H](O)C3=O)[C@H](O)[C@H](O)[C@H]1O [Taxifolin 7-O-rhamnoside] | 4.1% | –
13 | C[C@H]1CC[C@@H]2N(C1)C[C@H]1[C@@H]3C[C@H]4[C@@H](CC(=O)[C@H]5C[C@@H](O[C@@H]6O[C@H](CO)[C@@H](O)[C@H](O)[C@H]6O)CC[C@@]54C)[C@@H]3CC[C@@H]1[C@]2(C)O [Edpetiline] | -0.6% | –
14 | CC(=O)N[C@@H](CCCN)C(=O)O [N-Acetylornithine] | -0.4% | –
15 | O=C(O)c1ccccn1 [PCL 016] | -0.3% | –
16 | C[C@H](O)[C@H](O)[C@@H](O)[C@@H](O)C=O [Rhamnose (monohydrate)] | -1.4% | –
17 | C[C@@H]1O[C@@H](c2c(O)c([C@@H]3O[C@H](CO)[C@@H](O)[C@H](O)[C@H]3O)c(O)c3c(=O)cc(-c4ccc(O)cc4)oc23)[C@H](O)[C@H](O)[C@H]1O [Violanthin] | -0.4% | –
18 | C[C@H]1O[C@@H](O[C@H]2CC[C@@]3(C)[C@@H](CC[C@]4(C)[C@@H]3C=CC3=C5CC(C)(C)CC[C@]5(CO)[C@H](O)C[C@]34C)[C@]2(C)CO)[C@H](O)[C@@H](O)[C@H]1O [Prosaikogenin D] | 5% | –

One compound at a time, as listed above. Order of values: OC43 Inhibition rate	OC43 Inhibition rate (OC43 Inhibition rate, 24 h)
C[C@H](O)[C@H](O)[C@@H](O)[C@@H](O)C=O [Rhamnose (monohydrate)] in the list: -1.4%	–
C[C@@H]1O[C@@H](c2c(O)c([C@@H]3O[C@H](CO)[C@@H](O)[C@H](O)[C@H]3O)c(O)c3c(=O)cc(-c4ccc(O)cc4)oc23)[C@H](O)[C@H](O)[C@H]1O [Violanthin] in the list: -0.4%	–

Carrying on:

Row | Compound | OC43 Inhibition rate | OC43 Inhibition rate (OC43 Inhibition rate, 24 h)
19 | CC(=O)O[C@@H]1[C@@H](OC(C)=O)[C@@H](O)[C@H](Oc2c(-c3ccc(O)cc3)oc3cc(O)cc(O)c3c2=O)O[C@H]1C [SL 0101-1] | 0.7% | –
20 | C=C1C(=O)O[C@H]2C[C@H](C)C(/C=C/C(C)=O)=CC[C@H]12 [Xanthatin] | -0.6% | –
21 | COc1cc2oc(-c3ccc(O)c(O)c3)c(OC)c(=O)c2c(O)c1OC [Chrysosplenol D] | 2.8% | –
22 | CC[C@H](CC[C@@H](C)[C@H]1CC[C@H]2[C@@H]3CC=C4C[C@@H](O)CC[C@]4(C)[C@H]3CC[C@]12C)C(C)C [Beta-Sitosterol (purity>80%)] | – | -0.3%
23 | O=c1oc2cc(O)ccc2c2ccc(O)cc12 [Urolithin A] | -4.5% | –
24 | O=C(O)c1ccc(O)c(O)c1O [2,3,4-Trihydroxybenzoic acid] | -1.2% | –
25 | C[C@@H]1CC[C@@]2(NC1)O[C@H]1C[C@H]3[C@@H]4CC=C5C[C@@H](O[C@@H]6O[C@H](CO)[C@H](O)[C@H](O[C@@H]7O[C@H](CO)[C@@H](O)[C@H](O)[C@H]7O)[C@H]6O[C@@H]6O[C@@H](C)[C@H](O)[C@@H](O)[C@H]6O)CC[C@]5(C)[C@H]4CC[C@]3(C)[C@H]1[C@@H]2C [Solasonine] | 13.2% | –
26 | CC(C)=CC[C@@H](O)C1=CC(=O)c2c(O)ccc(O)c2C1=O [Shikonin] | 0.8% | –
27 | COc1cc2c(cc1OC)-c1cc3ccc(OC)c(O)c3c[n+]1CC2 [Palmaturbine (hydroxide)] | – | 2.9%
28 | O=C(/C=C/c1ccc(O)cc1)c1ccccc1 [4-Hydroxychalcone] | 0% | –
29 | O=C(/C=C/c1ccc(O)c(O)c1)O[C@@H]1C[C@@](OC(=O)/C=C/c2ccc(O)c(O)c2)(C(=O)O)C[C@@H](O)[C@@H]1O [Cynarin] | 3% | –
30 | CC1=C(/C=C/C(C)=C/C=C/C(C)=C/C(=O)O)C(C)(C)CCC1 [Retinoic acid] | 0.1% | –
31 | CC(C)=CCC[C@](C)(O[C@@H]1O[C@H](CO)[C@@H](O)[C@H](O)[C@H]1O)[C@H]1CC[C@]2(C)[C@@H]1[C@H](O)C[C@@H]1[C@@]3(C)CC[C@H](O)C(C)(C)[C@@H]3[C@@H](O[C@@H]3O[C@H](CO)[C@@H](O)[C@H](O)[C@H]3O[C@@H]3O[C@@H](C)[C@H](O)[C@@H](O)[C@H]3O)C[C@]12C [Ginsenoside Re] | -0.2% | –
32 | CC(C)=CCc1c(O)cc(O)c2c(=O)c(O[C@@H]3O[C@@H](C)[C@H](O)[C@@H](O)[C@H]3O)c(-c3ccc(O)cc3)oc12 [IKarisoside A] | 14.9% | –
33 | COc1ccc2ccc(=O)oc2c1CC=C(C)C [Osthole] | 30.2% | –
34 | CC(=O)N[C@@H](CCCCN)C(=O)O [Acetyl-L-lysine] | -0.1% | –
35 | C[C@@H]1CC[C@@]2(OC1)O[C@H]1C[C@H]3[C@@H]4CC[C@H]5C[C@@H](O[C@@H]6O[C@H](CO)[C@H](O[C@@H]7O[C@H](CO)[C@@H](O)[C@H](O[C@@H]8OC[C@@H](O)[C@H](O)[C@H]8O)[C@H]7O[C@@H]7O[C@H](CO)[C@H](O)[C@H](O)[C@H]7O)[C@H](O)[C@H]6O)CC[C@]5(C)[C@H]4CC(=O)[C@]3(C)[C@H]1[C@@H]2C [Terrestrosin D] | -4.6% | –
